For one substance, binding results are on record in PMC8947033.

Protein sequences, listed by entry. Tags and fused reporters are not part of them.
UniProt Q9UKV8: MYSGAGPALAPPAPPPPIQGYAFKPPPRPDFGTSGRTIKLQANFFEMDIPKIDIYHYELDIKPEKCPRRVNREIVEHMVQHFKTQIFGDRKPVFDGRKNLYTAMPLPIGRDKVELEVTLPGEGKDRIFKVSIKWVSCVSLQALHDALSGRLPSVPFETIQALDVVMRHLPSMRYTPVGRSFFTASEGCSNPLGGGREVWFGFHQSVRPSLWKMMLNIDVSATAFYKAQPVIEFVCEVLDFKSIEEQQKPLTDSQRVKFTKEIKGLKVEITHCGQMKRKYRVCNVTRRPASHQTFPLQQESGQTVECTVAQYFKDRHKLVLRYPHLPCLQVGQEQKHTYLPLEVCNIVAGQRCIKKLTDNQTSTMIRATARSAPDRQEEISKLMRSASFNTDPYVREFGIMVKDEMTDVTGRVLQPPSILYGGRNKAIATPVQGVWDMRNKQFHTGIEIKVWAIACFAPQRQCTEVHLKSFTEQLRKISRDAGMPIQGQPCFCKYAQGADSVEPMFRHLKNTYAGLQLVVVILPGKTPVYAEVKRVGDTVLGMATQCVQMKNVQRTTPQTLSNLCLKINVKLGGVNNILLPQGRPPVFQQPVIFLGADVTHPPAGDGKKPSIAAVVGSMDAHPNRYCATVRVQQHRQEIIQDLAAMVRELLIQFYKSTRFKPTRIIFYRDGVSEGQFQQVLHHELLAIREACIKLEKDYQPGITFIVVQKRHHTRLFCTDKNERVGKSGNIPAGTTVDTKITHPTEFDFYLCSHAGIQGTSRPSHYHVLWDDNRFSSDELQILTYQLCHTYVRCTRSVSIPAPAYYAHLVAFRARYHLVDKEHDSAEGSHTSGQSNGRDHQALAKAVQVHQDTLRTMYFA

In this assay the target is T1, Myc-SERBP1 (UniProt Q8NC51).
T1 sequence: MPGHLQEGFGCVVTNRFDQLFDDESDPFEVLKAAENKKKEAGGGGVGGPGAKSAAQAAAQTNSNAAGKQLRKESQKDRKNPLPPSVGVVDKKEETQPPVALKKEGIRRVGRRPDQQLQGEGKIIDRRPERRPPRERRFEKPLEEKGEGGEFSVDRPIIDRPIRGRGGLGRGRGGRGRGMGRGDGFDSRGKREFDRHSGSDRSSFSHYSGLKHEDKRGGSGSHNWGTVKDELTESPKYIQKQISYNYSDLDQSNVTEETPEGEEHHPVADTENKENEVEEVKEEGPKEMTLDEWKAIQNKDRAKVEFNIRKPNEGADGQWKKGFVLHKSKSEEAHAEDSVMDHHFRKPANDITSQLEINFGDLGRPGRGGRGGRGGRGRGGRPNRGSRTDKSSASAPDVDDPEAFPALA
Kind of assay: co-IP; SH-SY5Y cells co-transfected with Myc-SERBP1 and FLAG-Ago2 (control: Myc tag only and FLAG-Ago2); IP with anti-Myc agarose beads, elution, Western blot with anti-FLAG antibody. (In western blotting, separated proteins are transferred to a membrane and probed.)

These are yes or no findings as the source states them, for the method shown. In cells and extracts the contact can be indirect. Some entries that bind do so weakly or less than the wild type. Where a sequence is shown, tags or fusion partners need not be part of it.

Turning to “FLAG-hAGO2 (human Argonaute2) (from UniProt Q9UKV8 1-859)”, the binding entry is “binds”.
